Measurements published in PubChem BioAssay AID1439 (NMMLSC, 2008).
The campaign covered roughly 220,000 compounds. About 770 (0.35%) were called active. Inconclusive results, whose numbers are uncertain, are shown with a selection of clear calls. Rule as the data show it: active = binding response below about 49% or above about 150%; inconclusive = no clear call, values can overlap the other calls; inactive = in between.

The chains behind the UniProt entries cited, without tags or fusion partners.
UniProt P09471, whole entry, looked up: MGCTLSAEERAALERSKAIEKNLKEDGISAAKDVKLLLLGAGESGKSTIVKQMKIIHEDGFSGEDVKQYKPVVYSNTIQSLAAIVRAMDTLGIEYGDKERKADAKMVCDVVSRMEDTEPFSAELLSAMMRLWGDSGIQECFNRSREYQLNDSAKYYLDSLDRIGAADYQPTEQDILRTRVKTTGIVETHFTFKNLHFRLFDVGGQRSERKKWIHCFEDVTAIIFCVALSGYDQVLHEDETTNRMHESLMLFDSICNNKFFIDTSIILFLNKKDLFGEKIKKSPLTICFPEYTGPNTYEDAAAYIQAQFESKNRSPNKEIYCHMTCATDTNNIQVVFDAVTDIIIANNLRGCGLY

Target: Guanine nucleotide-binding protein G(o) subunit alpha (Homo sapiens) (UniProt P09471)
Experiment: RGS7-Galphao binding modulators, primary screen, biochemical, multiplexed bead flow cytometry (AID 1439);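 also: fluorescent Galphao held in activated GDP-AlF4 state binding bead-coupled RGS7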
Conditions: at 10 µM, actives lie on both sides

| Structure (SMILES) | binding response (% of control) |
| --- | --- |
| Cc1cc(C)[n+](-c2ccc(Oc3ccccc3)c(S(=O)(=O)[O-])c2)[nH]1 | inconclusive: 107% |
| O=S(=O)(NCc1ccccc1F)c1cccc(S(=O)(=O)N2CCOCC2)c1 | inactive: 99.7% |
| CCOC(=O)CN(C(=O)COc1nc(-c2ccccc2)cc(C)c1C#N)c1ccc(C)cc1 | inconclusive: 228% |
| O=C(c1cccnc1Nc1ccc2c(c1)CCC2)N1CCOCC1 | active: -1.24% |
| CCOc1ccc2oc(C(=O)NCC(C)(C)CN(C)C)c(C)c2c1 | inconclusive: 85% |
| CC(C(=O)Nc1ccccc1-c1ccccc1)N(C)Cc1nc2ccccc2c(=O)[nH]1 (stereo unspecified) | inactive: 103% |
| CCC(C(=O)NN1C(=O)c2ccccc2C1=O)c1ccccc1 (stereo unspecified) | inactive: 89.1% |
| O=C(Cn1nnc2ccccc21)c1ccc(Br)cc1 | inconclusive: 102% |
| O=C1/C(=C/c2ccccn2)SC(=S)N1Cc1ccccc1 | inconclusive: 96.7% |
| O=C(O)c1ccccc1Sc1ccccc1S(=O)(=O)NC1CCCCC1 | inconclusive: 523% |
| C/C=N\NC(=O)CNC(=O)CNC(=O)c1ccccc1 | inconclusive: 92.3% |
| COc1ccccc1C1=NOC(CN2C(=O)c3ccccc3S2(=O)=O)C1 (stereo unspecified) | inconclusive: 70.8% |
| CCCN1CCC(=O)N([C@H](CSc2ccc(OC)cc2)CC(C)C)CC1 | inconclusive: 104% |
| CC(C)(C)C(=O)CSc1nc(N)cc(=O)[nH]1 | inactive: 104% |
| C#CCO[C@@H]1C[C@H](n2ccc(NC(=O)c3ccccc3)nc2=O)O[C@@H]1CO | inconclusive: 111% |
| Cc1nc2ccccc2nc1NS(=O)(=O)c1ccc(N)cc1 | inconclusive: 108% |
| O=C(NCCc1ccccc1)c1ccc(-c2ccc(F)cc2)o1 | inconclusive: 100% |
| CN(C)S(=O)(=O)c1cccc(NC(=O)CSc2nnnn2-c2ccccc2)c1 | inconclusive: 382% |
| CN1CC(=O)N(CC(=O)NCc2ccc3c(c2)OCO3)C1=O | inactive: 100% |
| CCOC(=O)Cn1nc(C)n(-c2ccc(Cl)cc2)c1=O | inconclusive: 115% |
| CC(=O)c1ccccc1OC(=O)c1ccc([N+](=O)[O-])o1 | inconclusive: 95.3% |
| CCCCn1c(N)c(N(CC)C(=O)c2cc(OC)cc(OC)c2)c(=O)[nH]c1=O | inconclusive: 82.4% |
| O=C(Nc1cccc([N+](=O)[O-])c1)c1cccc(C(=O)Nc2cccc([N+](=O)[O-])c2)c1 | inconclusive: 184% |

| Structure (SMILES) | binding response (% of control) |
| --- | --- |
| COc1ccccc1CNC(=S)Nc1cc(C)ccc1C | inconclusive: 103% |
| COC(=O)N/N=C/c1ccc(-c2ccc(Cl)cc2Cl)o1 | inconclusive: 124% |
| COc1cccc(NC(=O)Nc2nnc(CC(=O)NCc3ccccc3)s2)c1 | inconclusive: 105% |
| O=C(O)Cc1cn(-c2ccccc2)nc1-c1ccccc1 | inconclusive: 110% |
| CCNC(=O)NC(=O)CSc1ccc2ccccc2c1 | inconclusive: 95.4% |
| Cc1cc(/C=N/NC(=O)CC#N)c(C)n1-c1ccc([N+](=O)[O-])cc1 | inconclusive: 93% |
| Cc1cc(=O)oc(C)c1C(=O)Nc1cccc(F)c1 | inconclusive: 97.2% |
| CSc1nsc(SCC(=O)Nc2ccc(OC(C)=O)cc2)n1 | inconclusive: 118% |
| Cc1ccc(Cn2cccc(NC(=O)CCC3CCCC3)c2=O)cc1 | inconclusive: 110% |
| COc1cc(NC(=O)C2CC2)c(OC)cc1NC(=O)CCC(=O)NC1CCN(Cc2ccccc2)CC1 | inactive: 100% |
| CC(=O)Nc1ccc(/C=C/C(=O)c2ccccc2)cc1 | inconclusive: 112% |
| c1ccc(CCc2nc3ccccc3[nH]2)cc1 | inactive: 92.6% |
| CC(C)NC(=S)N1CCC(Cc2ccccc2)CC1 | inconclusive: 113% |
| CN1CCN(C(=O)C(C(=O)c2ccc(F)cc2)n2ccccc2=O)CC1 (stereo unspecified) | inactive: 116% |
| O=S(=O)(NCc1ccc2c(c1)OCO2)c1cccc2nsnc12 | inconclusive: 104% |
| COc1ccc(S(=O)(=O)N2CCc3ccccc32)cc1C(=O)Nc1cccnc1 | inconclusive: 109% |
| Cc1ccc(N=Nc2ccc(N)cc2C)c(S(N)(=O)=O)c1 | inconclusive: 162% |
| Cc1cccc(N2CCN(C(=O)COc3cccc4c3OC(C)(C)C4)CC2)c1C | inactive: 99.5% |
| O=C(Nc1ccc([N+](=O)[O-])cc1)C(=O)Nc1cccc(C(=O)O)c1 | inconclusive: 65.2% |
| COc1ccc(/C=C/C(=O)Oc2cc(O)cc(O)c2)cc1 | inconclusive: 68.2% |
| O=C(NC(=O)c1ccccc1Cl)Nc1ccc(-c2cnco2)cc1 | inconclusive: 277% |
| CN(C)CCNC(=S)Nc1cccc(Cl)c1 | active: 14.5% |
| Cc1ccc(C(=O)Nc2cc3ccccc3oc2=O)cc1 | inactive: 106% |

3 compounds from above, arranged by formula weight, high to low.

| Structure (SMILES) | binding response (% of control) |
| --- | --- |
| CSc1nsc(SCC(=O)Nc2ccc(OC(C)=O)cc2)n1 | inconclusive: 118% |
| COc1ccccc1CNC(=S)Nc1cc(C)ccc1C | inconclusive: 103% |
| CC(=O)Nc1ccc(/C=C/C(=O)c2ccccc2)cc1 | inconclusive: 112% |
